# In patent US8067600B2, “Histone deacetylase inhibitors and methods of use thereof” (Georgetown University, priority 2003, dated 2011):
# Experiment: Cytotoxicity in SQ-20B cells (colony formation)
# Conditions: human, SQ-20B squamous carcinoma cells
smiles,measurement,value
"O=C(CCCCCCC(=O)Nc1ccccc1)NO [SAHA, suberoylanilide hydroxamic acid, reference compound]",IC50 at 24 h,3000 nM
